Measurements as given in PMC10653812.

Amino acid sequences for entries named in this document (tags omitted).
UniProt A0A7U2MSD6: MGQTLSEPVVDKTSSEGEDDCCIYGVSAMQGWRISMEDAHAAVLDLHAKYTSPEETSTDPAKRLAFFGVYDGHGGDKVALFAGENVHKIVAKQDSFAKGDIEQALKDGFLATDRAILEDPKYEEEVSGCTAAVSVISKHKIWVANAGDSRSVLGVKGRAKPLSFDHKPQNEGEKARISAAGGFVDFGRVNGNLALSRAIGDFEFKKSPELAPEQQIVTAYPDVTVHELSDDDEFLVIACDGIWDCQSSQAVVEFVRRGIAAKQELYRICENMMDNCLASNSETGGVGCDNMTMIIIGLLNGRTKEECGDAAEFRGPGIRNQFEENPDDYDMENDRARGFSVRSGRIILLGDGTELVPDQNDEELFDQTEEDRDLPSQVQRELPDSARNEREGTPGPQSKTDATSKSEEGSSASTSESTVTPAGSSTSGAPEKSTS
UniProt A0A7G5KET3: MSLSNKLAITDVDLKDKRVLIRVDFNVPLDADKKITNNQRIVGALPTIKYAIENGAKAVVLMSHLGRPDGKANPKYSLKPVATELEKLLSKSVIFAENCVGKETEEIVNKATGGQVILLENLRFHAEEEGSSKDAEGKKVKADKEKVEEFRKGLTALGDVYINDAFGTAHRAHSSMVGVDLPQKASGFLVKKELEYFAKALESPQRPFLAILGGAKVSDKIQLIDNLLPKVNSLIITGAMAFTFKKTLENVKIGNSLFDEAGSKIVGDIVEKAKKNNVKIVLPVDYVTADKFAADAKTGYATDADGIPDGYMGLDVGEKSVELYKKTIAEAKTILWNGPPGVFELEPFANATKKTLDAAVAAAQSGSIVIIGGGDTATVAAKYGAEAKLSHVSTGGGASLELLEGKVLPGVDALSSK

T1: Ptc1::eGFP (Aspergillus flavus) (UniProt B8NLZ3)
T1 sequence: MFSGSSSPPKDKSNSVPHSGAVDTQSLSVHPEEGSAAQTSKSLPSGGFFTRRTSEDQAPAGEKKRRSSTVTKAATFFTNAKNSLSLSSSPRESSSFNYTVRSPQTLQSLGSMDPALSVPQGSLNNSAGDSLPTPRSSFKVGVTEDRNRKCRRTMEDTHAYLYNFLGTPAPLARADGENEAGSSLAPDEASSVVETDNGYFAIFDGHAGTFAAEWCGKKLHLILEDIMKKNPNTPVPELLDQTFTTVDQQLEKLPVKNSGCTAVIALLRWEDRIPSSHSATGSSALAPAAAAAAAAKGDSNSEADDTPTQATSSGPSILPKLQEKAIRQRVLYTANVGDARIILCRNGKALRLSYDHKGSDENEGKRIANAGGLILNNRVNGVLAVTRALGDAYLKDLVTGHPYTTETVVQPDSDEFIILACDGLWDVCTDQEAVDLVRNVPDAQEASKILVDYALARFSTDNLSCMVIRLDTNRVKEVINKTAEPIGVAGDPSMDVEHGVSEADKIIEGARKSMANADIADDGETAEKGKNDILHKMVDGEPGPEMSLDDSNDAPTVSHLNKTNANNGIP

B1: Ptc1 (endogenous, untagged) (enzyme, UniProt B8NLZ3 1-570)
chain: T1 sequence

Assays:
Assay in all cases: affinity purification with mass spectrometry
[1] = target: T1, Ptc1::eGFP (Aspergillus flavus)
[2] = target: Ptc2::eGFP (Aspergillus flavus)
[3] = target: Ptc2::eGFP (Aspergillus flavus); remark: listed apart in the source

| Molecule | binding [1] | binding [2] | binding [3] |
| --- | --- | --- | --- |
| Ptc2 (endogenous, untagged) (from UniProt A0A7U2MSD6 1-435) (enzyme) | no binding | – | – |
| phosphoglycerate kinase 1 (PGK1) (from UniProt A0A7G5KET3 1-417) (enzyme) | binds | binds | – |
| B1 | – | – | no binding |

Where two headings read alike, the source gives them in different places. These are yes or no findings as the source states them, for the method shown. In cells and extracts the contact can be indirect. Here binding means that the protein was enriched with, or labelled near, the bait; the list need not be complete. For some of these results: No binding means not detected with the bait. For some of these results: Sequences can lack the tags named with a protein.
